The values that follow come from PubChem BioAssay AID463183 (Sanford-Burnham Center for Chemical Genomics, 2010).

The list shows a part of the results. The main result of the screen is listed elsewhere. These columns were measured beside it and carry no call. Compounds called inactive in the main read-out are mostly missing here.

A short description of this assay: hepatocyte lipid droplet accumulation inhibitors, confirmation, imaging, AML12 mouse hepatocytes, single concentration, high-content (AID 463183).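 Also: cells counted after overnight compound exposure.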 Conditions: BODIPY lipid droplet imaging, measured here: cell count, cytotoxicity, at 5.2 µM, droplets induced with 100 µM oleic acid.
Take `O=c1[nH]c(CSc2nnc(-c3ccccc3)n2-c2ccccc2)nc2ccccc12`: the cell count is 1640 cells.
Take `CCOc1ccc(CN(C)C(=O)CNC(=O)Cc2cccc3ccccc23)cc1`: the cell count was determined as 1620 cells.
`CN(C)S(=O)(=O)c1cccc(NC(=O)CC23CC4CC(CC(C4)C2)C3)c1` displayed a cell count of 1540 cells.
To `CCn1cc([N+](=O)[O-])c(C(=O)N2N=C(c3ccc4ccccc4c3)CC2c2cc(Br)ccc2O)n1` (stereo not given) belongs 1620 cells.
In the case of `CCOc1ccc(CN(C)C(=O)CNC(=O)c2ccc(Br)o2)cc1OC`, the cell count turned out to be 1510 cells.
`Cc1[nH]c2ccccc2c1/C=N/Nc1ccccc1[N+](=O)[O-]` displayed a cell count of 1640 cells.
With `CC1(C)Oc2ccc3ccc(=O)oc3c2/C(=C/Nc2ccc(O)cc2)C1=O` the figure was 1700 cells; with `Cc1ccc(C(=O)NCCc2nc3ccccc3[nH]2)cc1[N+](=O)[O-]`, 1570 cells; with `COc1ccc(C(C(=O)NC2CCCC2)N(CCC(C)C)C(=O)CCC(=O)Nc2cc(C)on2)cc1` (stereo not given), 1580 cells.
In turn, `CCn1c(=O)n(CC)c2cc(N)ccc21` gave a cell count of 1640 cells.
In turn, `CC(=O)c1ccc(N2CCCC2)c(F)c1` yielded a cell count of 1590 cells.
For the molecule `O=C1/C(=C/c2ccc([N+](=O)[O-])cc2)CCC1C1CCCC1` (stereo not given), the cell count turned out to be 1660 cells.
`CC(=O)c1c(C)[nH]c(C(=O)Nc2nc(-c3ccc(-c4ccccc4)cc3)cs2)c1C`: the cell count stood at 1590 cells.
On to `CCOc1ccc(C(=O)NCCNC(=O)c2ccc(OCC)cc2)cc1`, for which the cell count worked out at 1650 cells.
For `CCOC(=O)c1ccc(NC(=O)CSc2nc3c(c(=O)n2CC)SC(C)C3)cc1` (stereo not given), the cell count was determined as 1570 cells.
To `CC(C)(C)c1cc(NC(=O)Nc2ccc(Cl)cc2Cl)no1` belongs 1660 cells; to `CCOc1ccc(-n2c(SCC(=O)Nc3ccc(CC)cc3)nc3n[nH]c(C)c3c2=N)cc1`, 1640 cells; to `CCC(C)C(=O)N1c2ccccc2C(=C2SC(C(=O)OC)=C(C(=O)OC)S2)C(=S)C1(C)C` (stereo not given), 1470 cells.
Molecule `CCOc1ccc(CCNC(=O)c2cc3sc(Cl)cc3n2C)cc1OCC` displayed a cell count of 1550 cells.
For the molecule `CCOc1cc(CNC(=O)CCCn2c(=O)c3cccn3c3cccnc32)cc(OCC)c1OCC`, the cell count came out at 1540 cells.
Take `Cc1cc(C)nc(NCCO)n1`: the cell count came out at 1630 cells.
With `Clc1cccc(Nc2nc(-c3ccncc3)cs2)c1` the figure was 1200 cells.
On to `COc1ccc(C(=O)O/N=C(\N)c2ccccn2)cc1`, for which the cell count was 1550 cells.
Consider `COc1cccc(N=Nc2ccc3ccccc3c2O)c1`, for which the cell count was 1490 cells.
Molecule `N#CC(c1ccc(Cl)cc1)c1ccc2c(C(F)(F)F)cc(C(F)(F)F)nc2n1` (stereo not given) came in with a cell count of 934 cells.
With `CCc1ccc(NS(=O)(=O)c2cc3c(cc2C)n(C)c(=O)c(=O)n3C)cc1` the figure was 1600 cells.
The molecule `Fc1ccc(-c2cnn3c(-c4cccs4)ccnc23)cc1` gave a cell count of 1480 cells.
`CC(=O)c1ccc(Nc2nc(=O)c3cccnc3s2)cc1` showed a cell count of 1630 cells.
The molecule `COc1ccc(N=C/C=C2/C=C(c3ccccc3)OC(C)(C)O2)cc1` had a cell count of 1550 cells.
To `OCC[C@@H]1C[C@H](O)[C@@H](O)[C@]2(Cc3ccccc3O2)O1` belongs 1670 cells.
`Cc1ccc(-c2c(C)nn3c(N4CCOCC4)cc(C)nc23)cc1`: the cell count is 1660 cells.
`COC(C[C@@H](O)C[C@@H](O)COCc1ccccc1)OC` showed a cell count of 1610 cells.
With `CC1CC(C)CN(C(=O)c2ccc3c(c2NCCO)C(=O)c2ccccc2C3=O)C1` (stereo not given) the figure was 1570 cells; with `Cc1cccc2sc(NC(=O)CN(C)S(=O)(=O)c3cccs3)nc12`, 1570 cells; with `C/C(=N\Nc1nc(-c2ccccc2)cs1)c1cccs1`, 1650 cells.
`CN(C1=C(NC(=O)c2ccc(Cl)cc2)C(=O)c2ccccc2C1=O)c1ccccc1` registered a cell count of 1580 cells.
Take `CCOC(=O)c1c(C)[nH]c(N=Nc2ccccc2C)c1C`: the cell count is 1650 cells.
The molecule `CC1=C/C(=N\Nc2ccccc2[N+](=O)[O-])CC(C)(C)C1` registered a cell count of 1590 cells.
`O=C(CSCC(=O)N1CCCCC1)Nc1nc(-c2ccccc2)c(-c2ccccc2)s1` came in with a cell count of 1590 cells.
As to `CCOc1ccc2nc(-c3ccccc3)nc(SCC(=O)Nc3ncc(C)s3)c2c1`, the cell count amounted to 1550 cells.
